Measured values reported in paper PMC8631636.
These are yes or no findings as the source states them, for the method shown. In cells and extracts the contact can be indirect. Some entries that bind do so weakly or less than the wild type.

Amino acid sequences for entries named in this document (tags omitted).
UniProt Q8BLR2: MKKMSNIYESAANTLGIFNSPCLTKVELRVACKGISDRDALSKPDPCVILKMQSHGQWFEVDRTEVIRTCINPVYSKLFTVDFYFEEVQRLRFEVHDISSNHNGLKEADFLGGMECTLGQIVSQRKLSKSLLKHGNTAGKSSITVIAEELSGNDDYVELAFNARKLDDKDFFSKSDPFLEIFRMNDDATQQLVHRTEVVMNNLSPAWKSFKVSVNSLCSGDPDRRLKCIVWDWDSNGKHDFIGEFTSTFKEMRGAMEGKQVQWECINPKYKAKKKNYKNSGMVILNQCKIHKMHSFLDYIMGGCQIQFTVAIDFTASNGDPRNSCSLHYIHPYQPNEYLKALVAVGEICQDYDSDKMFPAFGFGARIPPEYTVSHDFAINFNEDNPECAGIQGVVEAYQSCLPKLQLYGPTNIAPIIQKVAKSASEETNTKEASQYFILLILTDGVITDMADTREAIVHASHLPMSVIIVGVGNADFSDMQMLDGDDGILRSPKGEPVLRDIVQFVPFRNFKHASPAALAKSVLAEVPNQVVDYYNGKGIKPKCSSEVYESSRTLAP
UniProt Q9JIS5: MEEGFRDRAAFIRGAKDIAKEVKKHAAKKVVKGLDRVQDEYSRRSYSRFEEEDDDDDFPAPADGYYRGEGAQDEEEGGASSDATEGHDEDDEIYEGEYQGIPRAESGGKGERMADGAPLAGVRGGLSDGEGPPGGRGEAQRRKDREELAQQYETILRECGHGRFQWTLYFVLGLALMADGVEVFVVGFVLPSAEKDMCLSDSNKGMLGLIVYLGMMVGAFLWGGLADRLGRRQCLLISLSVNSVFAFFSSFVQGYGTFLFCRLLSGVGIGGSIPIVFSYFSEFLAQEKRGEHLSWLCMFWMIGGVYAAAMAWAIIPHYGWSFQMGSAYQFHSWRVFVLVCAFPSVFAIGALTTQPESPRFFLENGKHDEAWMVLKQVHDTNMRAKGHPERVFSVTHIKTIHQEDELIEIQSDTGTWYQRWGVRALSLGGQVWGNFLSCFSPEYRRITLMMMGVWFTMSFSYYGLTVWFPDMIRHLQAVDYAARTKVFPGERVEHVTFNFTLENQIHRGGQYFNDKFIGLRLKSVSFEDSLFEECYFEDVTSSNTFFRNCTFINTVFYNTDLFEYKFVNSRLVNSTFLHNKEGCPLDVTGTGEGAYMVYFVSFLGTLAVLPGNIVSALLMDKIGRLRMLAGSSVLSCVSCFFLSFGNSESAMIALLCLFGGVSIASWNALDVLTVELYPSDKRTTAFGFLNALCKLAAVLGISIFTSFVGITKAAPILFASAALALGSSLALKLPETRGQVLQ
UniProt P14873: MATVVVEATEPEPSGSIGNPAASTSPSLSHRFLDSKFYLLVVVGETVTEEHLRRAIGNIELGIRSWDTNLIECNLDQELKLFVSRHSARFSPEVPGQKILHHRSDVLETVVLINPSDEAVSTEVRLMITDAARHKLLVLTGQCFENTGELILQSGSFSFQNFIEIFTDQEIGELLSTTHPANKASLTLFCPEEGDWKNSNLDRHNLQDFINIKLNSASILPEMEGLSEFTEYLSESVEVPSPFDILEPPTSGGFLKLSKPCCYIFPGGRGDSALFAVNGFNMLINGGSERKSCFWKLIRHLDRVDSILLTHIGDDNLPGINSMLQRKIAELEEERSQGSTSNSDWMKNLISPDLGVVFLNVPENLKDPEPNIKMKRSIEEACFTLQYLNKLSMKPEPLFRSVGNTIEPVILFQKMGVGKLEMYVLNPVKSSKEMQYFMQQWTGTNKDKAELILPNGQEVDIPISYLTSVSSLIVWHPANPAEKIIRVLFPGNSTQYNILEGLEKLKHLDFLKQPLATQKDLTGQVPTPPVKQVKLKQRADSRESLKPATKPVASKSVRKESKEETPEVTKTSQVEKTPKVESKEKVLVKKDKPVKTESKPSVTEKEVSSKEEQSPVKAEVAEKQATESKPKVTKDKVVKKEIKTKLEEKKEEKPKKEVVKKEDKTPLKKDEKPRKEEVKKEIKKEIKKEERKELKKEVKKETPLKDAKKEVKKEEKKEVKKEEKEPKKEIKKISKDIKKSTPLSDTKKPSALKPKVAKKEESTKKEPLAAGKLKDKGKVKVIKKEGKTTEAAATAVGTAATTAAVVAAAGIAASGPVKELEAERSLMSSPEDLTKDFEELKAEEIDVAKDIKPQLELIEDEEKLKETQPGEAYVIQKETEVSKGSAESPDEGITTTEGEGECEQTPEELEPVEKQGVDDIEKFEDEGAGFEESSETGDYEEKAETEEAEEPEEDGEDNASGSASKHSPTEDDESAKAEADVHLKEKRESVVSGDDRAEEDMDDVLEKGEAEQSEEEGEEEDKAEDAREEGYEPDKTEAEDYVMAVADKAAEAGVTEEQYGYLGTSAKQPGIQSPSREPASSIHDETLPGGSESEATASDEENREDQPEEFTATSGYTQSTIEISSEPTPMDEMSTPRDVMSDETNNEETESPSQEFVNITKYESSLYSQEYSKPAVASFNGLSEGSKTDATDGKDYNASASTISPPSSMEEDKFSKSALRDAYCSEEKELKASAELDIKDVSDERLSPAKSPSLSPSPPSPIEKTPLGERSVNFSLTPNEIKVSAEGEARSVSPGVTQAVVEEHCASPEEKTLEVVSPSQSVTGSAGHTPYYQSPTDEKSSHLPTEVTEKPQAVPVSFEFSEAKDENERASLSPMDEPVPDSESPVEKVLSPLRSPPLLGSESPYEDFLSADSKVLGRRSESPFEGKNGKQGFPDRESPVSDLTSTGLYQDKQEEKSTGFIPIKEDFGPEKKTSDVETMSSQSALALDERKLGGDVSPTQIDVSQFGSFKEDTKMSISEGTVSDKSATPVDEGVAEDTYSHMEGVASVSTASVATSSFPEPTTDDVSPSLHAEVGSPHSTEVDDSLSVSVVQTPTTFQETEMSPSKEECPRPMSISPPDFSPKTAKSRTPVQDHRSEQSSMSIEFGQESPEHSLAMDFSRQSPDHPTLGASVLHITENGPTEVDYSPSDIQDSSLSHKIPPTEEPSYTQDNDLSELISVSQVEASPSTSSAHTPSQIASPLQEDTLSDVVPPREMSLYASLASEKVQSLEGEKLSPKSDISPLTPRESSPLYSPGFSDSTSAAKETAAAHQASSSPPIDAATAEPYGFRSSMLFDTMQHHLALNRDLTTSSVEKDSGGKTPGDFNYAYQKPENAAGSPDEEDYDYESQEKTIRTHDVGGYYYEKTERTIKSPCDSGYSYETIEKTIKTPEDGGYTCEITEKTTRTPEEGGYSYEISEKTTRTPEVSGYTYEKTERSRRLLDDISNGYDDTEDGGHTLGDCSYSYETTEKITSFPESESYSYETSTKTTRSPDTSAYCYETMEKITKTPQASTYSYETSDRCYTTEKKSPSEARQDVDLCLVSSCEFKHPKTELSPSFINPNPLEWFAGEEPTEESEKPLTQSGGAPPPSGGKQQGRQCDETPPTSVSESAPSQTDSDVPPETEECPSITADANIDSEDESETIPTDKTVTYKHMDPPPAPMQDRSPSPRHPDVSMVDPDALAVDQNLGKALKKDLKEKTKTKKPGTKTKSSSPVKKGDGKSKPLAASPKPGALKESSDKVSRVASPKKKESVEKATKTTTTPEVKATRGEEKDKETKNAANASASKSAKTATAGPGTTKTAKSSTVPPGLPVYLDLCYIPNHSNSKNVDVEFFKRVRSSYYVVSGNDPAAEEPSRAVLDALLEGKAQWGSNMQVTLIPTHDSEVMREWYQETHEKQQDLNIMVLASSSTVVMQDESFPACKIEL
UniProt P61264: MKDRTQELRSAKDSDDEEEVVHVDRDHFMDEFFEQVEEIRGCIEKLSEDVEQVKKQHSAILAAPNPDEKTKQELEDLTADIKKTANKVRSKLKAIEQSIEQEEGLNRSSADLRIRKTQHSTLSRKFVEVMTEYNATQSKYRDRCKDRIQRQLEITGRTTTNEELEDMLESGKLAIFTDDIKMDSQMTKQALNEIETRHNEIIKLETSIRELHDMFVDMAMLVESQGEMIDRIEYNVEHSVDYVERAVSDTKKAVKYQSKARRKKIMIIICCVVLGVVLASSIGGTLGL

The substances below were run against GST-Cpne4 (UniProt Q8BLR2) (assay: pull-down; GST, GST-Cpne4-vWA or GST-Cpne4 on glutathione magnetic beads incubated overnight at 4°C with cleared mouse retina lysate; eluates checked with specific antibodies by Western blotting; only the target purified).
SV2 (from UniProt Q9JIS5 1-742) was tested, and the binding was “binds”. Map1b (from UniProt P14873 1-2464) was tested, and the binding was “binds”. Syntaxin-1 (from UniProt P61264 1-288) was tested, and the binding was “binds”.
